Measurements reported in PMC11633972.

Sequences of proteins named here, by UniProt entry; tags and fusion partners are left off.
UniProt P69596: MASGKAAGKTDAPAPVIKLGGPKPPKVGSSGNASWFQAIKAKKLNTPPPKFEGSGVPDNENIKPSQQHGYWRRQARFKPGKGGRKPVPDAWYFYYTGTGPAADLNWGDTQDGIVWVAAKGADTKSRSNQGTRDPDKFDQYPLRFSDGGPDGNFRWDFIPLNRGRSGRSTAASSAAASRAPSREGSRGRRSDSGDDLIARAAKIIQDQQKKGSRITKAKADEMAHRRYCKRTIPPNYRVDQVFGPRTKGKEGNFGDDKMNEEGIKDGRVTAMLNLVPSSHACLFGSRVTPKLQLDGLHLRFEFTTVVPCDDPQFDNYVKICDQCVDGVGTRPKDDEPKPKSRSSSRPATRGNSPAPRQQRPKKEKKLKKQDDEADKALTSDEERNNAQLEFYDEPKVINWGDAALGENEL

Target: Flag-tagged IBV N protein (expressed in HEK-293T cells) (infectious bronchitis virus (IBV), Beaudette strain) (UniProt P69596)
Test: affinity purification with mass spectrometry

B1: RAE1 (mRNA export factor) (protein, UniProt P78406 1-368)
chain: MSLFGTTSGFGTSGTSMFGSATTDNHNPMKDIEVTSSPDDSIGCLSFSPPTLPGNFLIAGSWANDVRCWEVQDSGQTIPKAQQMHTGPVLDVCWSDDGSKVFTASCDKTAKMWDLSSNQAIQIAQHDAPVKTIHWIKAPNYSCVMTGSWDKTLKFWDTRSSNPMMVLQLPERCYCADVIYPMAVVATAERGLIVYQLENQPSEFRRIESPLKHQHRCVAIFKDKQNKPTGFALGSIEGRVAIHYINPPNPAKDNFTFKCHRSNGTNTSAPQDIYAVNGIAFHPVHGTLATVGSDGRFSFWDKDARTKLKTSEQLDQPISACCFNHNGNIFAYASSYDWSKGHEFYNPQKKNYIFLRNAAEELKPRNKK
Q: For B1, which binding is on record?
A: Its binding is “binds”.

No constants are given. Whether binding was seen depends on the method and setting. Binding seen in cells or lysates may run through a third protein. Here binding means that the protein was enriched with, or labelled near, the bait; the list need not be complete.
